Results are given in words; binding and its absence hold for the method and conditions named. Some entries that bind do so weakly or less than the wild type.
Target: T1, Gid1 (S. cerevisiae) (UniProt P53076)
T1 sequence: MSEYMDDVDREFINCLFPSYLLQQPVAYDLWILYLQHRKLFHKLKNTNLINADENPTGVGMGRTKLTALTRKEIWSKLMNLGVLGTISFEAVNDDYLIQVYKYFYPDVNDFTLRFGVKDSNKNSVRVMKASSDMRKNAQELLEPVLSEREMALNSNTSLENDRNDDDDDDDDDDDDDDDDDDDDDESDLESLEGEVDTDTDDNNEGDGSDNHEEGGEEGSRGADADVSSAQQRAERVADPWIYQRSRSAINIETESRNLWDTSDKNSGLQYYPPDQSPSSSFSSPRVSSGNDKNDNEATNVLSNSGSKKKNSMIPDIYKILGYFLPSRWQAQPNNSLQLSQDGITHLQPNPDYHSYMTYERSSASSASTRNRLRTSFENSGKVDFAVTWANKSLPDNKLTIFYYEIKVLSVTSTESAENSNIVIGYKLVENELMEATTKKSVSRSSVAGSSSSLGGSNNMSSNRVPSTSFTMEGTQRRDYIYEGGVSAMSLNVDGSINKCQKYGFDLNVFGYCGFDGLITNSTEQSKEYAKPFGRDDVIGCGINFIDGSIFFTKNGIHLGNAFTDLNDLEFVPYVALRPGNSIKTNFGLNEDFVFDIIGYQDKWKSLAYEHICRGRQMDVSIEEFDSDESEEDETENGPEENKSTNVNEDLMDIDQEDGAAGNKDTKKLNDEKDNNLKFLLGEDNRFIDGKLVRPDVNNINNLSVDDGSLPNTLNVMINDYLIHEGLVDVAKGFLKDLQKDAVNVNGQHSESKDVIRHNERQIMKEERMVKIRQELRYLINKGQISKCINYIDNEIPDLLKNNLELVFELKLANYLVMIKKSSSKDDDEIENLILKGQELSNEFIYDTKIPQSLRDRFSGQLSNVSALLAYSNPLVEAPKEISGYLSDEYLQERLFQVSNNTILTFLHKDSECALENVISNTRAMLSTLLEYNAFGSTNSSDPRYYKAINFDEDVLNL
Assay: cryo-EM structure

B1: Gid4 (protein, UniProt P38263 1-362)
chain: MINNPKVDSVAEKPKAVTSKQSEQAASPEPTPAPPVSRNQYPITFNLTSTAPFHLHDRHRYLQEQDLYKCASRDSLSSLQQLAHTPNGSTRKKYIVEDQSPYSSENPVIVTSSYNHTVCTNYLRPRMQFTGYQISGYKRYQVTVNLKTVDLPKKDCTSLSPHLSGFLSIRGLTNQHPEISTYFEAYAVNHKELGFLSSSWKDEPVLNEFKATDQTDLEHWINFPSFRQLFLMSQKNGLNSTDDNGTTNAAKKLPPQQLPTTPSADAGNISRIFSQEKQFDNYLNERFIFMKWKEKFLVPDALLMEGVDGASYDGFYYIVHDQVTGNIQGFYYHQDAEKFQQLELVPSLKNKVESSDCSFEFA
B1 was tested, and the binding was “binds”.

Source: article doi:10.1101/824060 (bioRxiv, 2019)
